According to PubChem BioAssay AID1671190 (National Center for Advancing Translational Sciences (NCATS), 2021):
Hit rate of the full screen: of about 580,000 compounds, about 6,100 (1.1%) were called active. This list was built around the results that the source calls inconclusive (neither active nor inactive); the mix of calls is not that of the screen. Calls come from the whole dose curve; as a rule, active = well fitted inhibition curve with a large enough effect; inconclusive = small, poorly fitted or top-dose-only effect, or another doubt; inactive = no such curve, though single readings can be large or run the other way. Where the call is inconclusive, the potency comes from a doubtful curve fit.

Protein sequences, listed by entry. Tags and fused reporters are not part of them. Lines headed by an entry give the natural chain unless they say otherwise; changes in a name come on top.
UniProt P18054: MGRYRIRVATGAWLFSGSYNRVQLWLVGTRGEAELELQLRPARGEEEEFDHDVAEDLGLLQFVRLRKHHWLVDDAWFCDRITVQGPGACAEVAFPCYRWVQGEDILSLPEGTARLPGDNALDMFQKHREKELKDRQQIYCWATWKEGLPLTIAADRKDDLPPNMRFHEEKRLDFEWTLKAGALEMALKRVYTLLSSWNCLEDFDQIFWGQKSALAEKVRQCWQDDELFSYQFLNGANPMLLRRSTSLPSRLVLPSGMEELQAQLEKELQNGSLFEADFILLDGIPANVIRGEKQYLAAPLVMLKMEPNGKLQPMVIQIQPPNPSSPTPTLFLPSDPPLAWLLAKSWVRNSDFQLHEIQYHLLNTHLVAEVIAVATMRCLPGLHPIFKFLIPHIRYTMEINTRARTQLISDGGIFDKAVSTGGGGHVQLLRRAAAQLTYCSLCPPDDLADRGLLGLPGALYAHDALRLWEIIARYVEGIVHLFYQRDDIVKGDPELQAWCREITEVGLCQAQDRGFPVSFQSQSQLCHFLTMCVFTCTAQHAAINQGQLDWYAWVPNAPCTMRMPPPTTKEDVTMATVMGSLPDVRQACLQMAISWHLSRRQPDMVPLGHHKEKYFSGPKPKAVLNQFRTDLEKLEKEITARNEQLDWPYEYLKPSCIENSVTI

target: Polyunsaturated fatty acid lipoxygenase ALOX12 (Homo sapiens) (UniProt P18054); experiment: Primary qHTS assay for inhibitors of human arachidonate 12S-lipoxygenase (ALOX12): Round 2; details: purified 12hLO, xylenol orange hydroperoxide absorbance; activity change, negative = inhibition: at 108 µM (top of the series) unless noted
Method in brief: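 Hydroperoxide product was detected by ferrous iron/xylenol orange as the 573 to 405 nm absorbance ratio. Arachidonic acid at 40 uM (final) was turned over for 30 min at room temperature by 150 nM human 12hLO, pH 7.0 Hepes buffer, after 15 min compound preincubation.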
% is set by controls: 0 for no effect and ±100 for the full control effect; potency is the fitted concentration of half-maximal effect.

Row | Compound | activity change, negative = inhibition | Potency
1 | Clc1ccc(OCCn2ccnc2)c(Cl)c1 | inactive: -19.9% | –
2 | Cc1ccc(-c2nc3ncccn3c2Nc2ccccc2C)o1 | inactive: -27.4% | –
3 | Cn1c(C(=O)NCCC2=CCCCC2)cc2c(=O)n3ccccc3nc21 | inactive: -7.2% | –
4 | Cc1ccc(CNC(=O)Cn2c(C)cc3ccccc32)cc1 | inactive: -22.3% | –
5 | Cc1ccc(-c2nc3ccccc3o2)cc1NC(=O)c1cccs1 | – | inconclusive: 50.1 µM [inhibitor, partial curve, poor fit]
6 | OCCCNC(=S)NCCc1ccccc1 | – | inconclusive: 39.8 µM [inhibitor, partial curve, poor fit]
7 | O=C(Nc1cccc(C2=NCCN2)c1)Nc1cccc(C2=NCCN2)c1 | – | inactive
8 | COc1cc(OC)c2c(C)cc(=O)oc2c1C(CCN1CCN(c2ccccc2)CC1)c1ccc2c(c1)OCO2 (stereo not drawn) | inactive: 122% | –
9 | Cc1cc(=O)oc2cc(OCC(=O)NCc3cccnc3)c(Cl)cc12 | inactive: -3.29% | –
10 | CC1CCCN(C(=O)CCCC(=O)N2CCCC(C)C2)C1 (stereo not drawn) | – | inconclusive: 3.16 µM [inhibitor, full curve, poor fit]
11 | CCOC(=O)c1cnc2nc(C(F)(F)F)[nH]n2c1=O | – | inconclusive: 35.5 µM [inhibitor, partial curve, poor fit]
12 | COc1ccc(C(=O)N2CCCC(c3ccccc3)C2)cc1 (stereo not drawn) | inactive: 0% | –
13 | CCOc1cc(N2CCOCC2)c(OCC)cc1NC(=O)COC(=O)CCc1c[nH]c2ccccc12 | – | inconclusive: 89.1 µM [inhibitor, single point]
14 | CCc1nc2ccc(C(=O)NCCc3ccc(OC)c(OC)c3)cc2nc1CC | – | inactive
15 | C=CCN1CN(S(=O)(=O)c2ccc(OC)cc2)c2nc3ccccc3nc21 | – | inconclusive: 79.4 µM [inhibitor, single point]
16 | CSc1cccc(NC(=O)CCc2ncc(-c3ccc(F)cc3F)o2)c1 | inactive: 12.1% | –
17 | O=C(c1ccco1)N1CCN(c2nc3ccc(Cl)cc3s2)CC1 | – | inconclusive: 126 µM [inhibitor, single point]
18 | Cn1nc(C2CCNCC2)c2c(C(=O)NC3CC3)cc(C3CC3)nc21 | – | inconclusive: 31.6 µM [inhibitor, full curve, poor fit]
19 | CN(Cc1nc(-c2ccccc2)no1)C(=O)c1cccc(C2CCNC2)c1 (stereo not drawn) | – | inconclusive: 100 µM [inhibitor, partial curve, poor fit]
20 | COc1ccc(/C=C2\Oc3cc(OCC(=O)N4CC(O)C[C@H]4C(=O)O)ccc3C2=O)cc1OC (stereo partly drawn) | – | inconclusive: 39.8 µM [inhibitor, partial curve, poor fit]
21 | CCn1nc(C)c(CN2CCc3c([nH]c4ccccc34)C2c2ccc(F)c(OC)c2)c1C (stereo not drawn) | inactive: -14.1% | –
22 | N#C[C@@H]1N(Cc2ccccc2)C(=O)[C@H]2CC3C=CC21O3 (stereo partly drawn) | inactive: -4.54% | –
23 | CN(C)c1ccc(C=NC23CC4CC(CC(C4)C2)C3)cc1 | inactive: -8.46% | –

Row | Compound | activity change, negative = inhibition | Potency
24 | CN1CCC2(CC1)N=C(SCC(=O)Nc1cc(F)ccc1F)C(c1ccccc1)=N2 | inactive: -8.69% | –
25 | CCN1CCN(C2=C(NS(=O)(=O)c3ccccc3)C(=O)c3ccccc3C2=O)CC1 | inactive: 27.8% | –
26 | CC(c1cccs1)N(C)C(=O)Cc1n[nH]c(=O)c2ccccc12 (stereo not drawn) | – | inconclusive: 100 µM [inhibitor, single point]
27 | Cc1cc(C(=O)Cn2c(Cl)nc3c2c(=O)n(C)c(=O)n3C)c(C)n1CCc1ccccc1 | inactive: -7.31% | –
28 | O=C(CSc1ccccn1)N1CCN(S(=O)(=O)c2ccc(Cl)cc2)CC1 | – | inconclusive: 7.94 µM [inhibitor, partial curve, poor fit]
29 | COCCNC(=S)N/N=C(/C)c1cc(OC)c(OC)c(OC)c1 | – | inconclusive: 50.1 µM [inhibitor, single point]
30 | CC1CCCCC1NS(=O)(=O)CCNC(=O)c1ccccc1 (stereo not drawn) | inactive: -21% | –
31 | CC(=O)N1CCN(C(=S)Nc2ccc(SC(F)F)cc2)CC1 | inactive: -11.1% | –
32 | COc1ccccc1C(=O)NCC(c1ccco1)N1CCc2ccccc21 (stereo not drawn) | – | inconclusive: 79.4 µM [inhibitor, partial curve, poor fit]
33 | CCCCn1c(=O)[nH]c(=O)c2c1nc(-c1ccc(-c3ccccc3Br)o1)n2CC | – | inconclusive: 31.6 µM [inhibitor, partial curve, poor fit]
34 | O=C(COC(=O)c1ccc2ccccc2n1)Nc1cccc2ccccc12 | – | inconclusive: 126 µM [inhibitor, partial curve, poor fit]
35 | Cc1ccccc1OCC(=O)Nc1ccccc1C(=O)OCc1cc(=O)n2c(C)csc2n1 | – | inconclusive: 44.7 µM [inhibitor, partial curve, poor fit]
36 | CC(C)N(CCNC(=O)c1cc2cc(F)ccc2[nH]1)C(C)C | – | inconclusive: 44.7 µM [inhibitor, partial curve, poor fit]
37 | CCN(CC)C1(Cc2cc(CN(C)Cc3ccccc3)on2)COC1 | – | inconclusive: 100 µM [inhibitor, partial curve, poor fit]
38 | O=C(O)c1csc(-c2cnccn2)n1 | – | inconclusive: 35.5 µM [inhibitor, single point]
39 | Cc1ccc2c(c1)c1c(n2CCc2ccc(C)nc2)CCN(C)C1 | – | inconclusive: 0.344 µM [inhibitor, full curve]
40 | COC(=O)c1ccc(NC(=O)c2ccccc2SC)cc1 | – | inconclusive: 44.7 µM [inhibitor, partial curve]
41 | Cc1c(CCOC(=O)CC23CC4CC(CC(C)(C4)C2)C3)sc[n+]1Cc1ccc([N+](=O)[O-])cc1 | – | inconclusive: 50.1 µM [inhibitor, partial curve, poor fit]
42 | CCOc1ccc(/C=C2/SC(=S)N(C(C(=O)O)c3ccccc3)C2=O)cc1OCC (stereo not drawn) | – | inconclusive: 25.1 µM [inhibitor, partial curve, poor fit]
43 | COc1ccc(C2CCCN2C(=O)Nc2ccc(C)c(C)c2)cc1OC (stereo not drawn) | – | inconclusive: 112 µM [inhibitor, single point]
44 | COC(=O)C1=C(C)N(Cc2ccccc2)C(=S)N[C@H]1c1ccc(Br)cc1 | – | active: 44.7 µM
45 | COc1cccc(C(=O)Oc2ccc(C(C)=O)cc2)c1 | – | inconclusive: 17.8 µM [inhibitor, partial curve, poor fit]
46 | O=C1CC(Nc2ccc(N3CCOCC3)cc2)C(=O)N1CCc1ccccc1 (stereo not drawn) | – | inconclusive: 35.5 µM [inhibitor, partial curve, poor fit]

A stretch taken from the entries so far, as a working copy:
Row | Compound | activity change, negative = inhibition | Potency
8 | COc1cc(OC)c2c(C)cc(=O)oc2c1C(CCN1CCN(c2ccccc2)CC1)c1ccc2c(c1)OCO2 (stereo not drawn) | inactive: 122% | –
9 | Cc1cc(=O)oc2cc(OCC(=O)NCc3cccnc3)c(Cl)cc12 | inactive: -3.29% | –
10 | CC1CCCN(C(=O)CCCC(=O)N2CCCC(C)C2)C1 (stereo not drawn) | – | inconclusive: 3.16 µM [inhibitor, full curve, poor fit]

Later entries:

Row | Compound | activity change, negative = inhibition | Potency
47 | Cc1ccc(NC(=S)NCCN2CCOCC2)cc1 | – | inconclusive: 3.98 µM [inhibitor, single point]
48 | CCCCn1c(N)c(N(CCOC)C(=O)CSCc2cccc(C)c2)c(=O)[nH]c1=O | – | inconclusive: 63.1 µM [inhibitor, partial curve, poor fit]
49 | Cc1cccc(/C=C2/Sc3ccc(C(=O)NCCN4CCCC4)cc3NC2=O)c1 | – | inconclusive: 70.8 µM [inhibitor, partial curve, poor fit]
50 | CCOC(=O)CSc1nc(N)c(C#N)cc1C#N | – | inconclusive: 11.2 µM [inhibitor, full curve, poor fit]
51 | CC(C)CC(=O)Nc1ccc(C(=O)Nc2ccc(CCC(=O)O)cc2)cc1 | – | inconclusive: 28.2 µM [inhibitor, partial curve, poor fit]
52 | Cc1ccc(O)c(C(=O)c2cc(C#N)c3nc4ccccc4n3c2)c1 | – | inconclusive: 50.1 µM [inhibitor, partial curve, poor fit]
53 | O=C(NCC1(c2ccccc2)CCCC1)c1cc2c(Cl)nc3ccccc3c2s1 | – | inconclusive: 2 µM [inhibitor, full curve, poor fit]
54 | COc1ccc(S(=O)(=O)Nc2cc3c(cc2SC2CCCCC2)n(C)c(=O)n3C)cc1 | – | inconclusive: 0.794 µM [inhibitor, full curve, poor fit]
55 | O=C(Nc1cccc2ccccc12)O[C@@H]1CO[C@H]2[C@@H]1OC[C@@H]2NC(=O)c1cccs1 | – | inconclusive: 25.1 µM [inhibitor, full curve, poor fit]
56 | Cc1ccc(S(=O)(=O)NCc2c(C)nn(Cc3ccccc3)c2C)cc1 | inactive: 3.52% | –
57 | O=S(=O)(Nc1cccnc1)c1ccc(C2CCCCC2)cc1 | – | inconclusive: 89.1 µM [inhibitor, single point]
58 | CCOC(=O)CN(C(=O)CSc1nnc(CNc2ccc(C)cc2C)n1CC)c1ccccc1 | inactive: 0% | –
59 | COc1ccccc1C1C=C(c2ccccc2)Nc2nnnn21 (stereo not drawn) | – | inconclusive: 35.5 µM [inhibitor, partial curve]
60 | CCOC(=O)c1sc(NC(=O)c2ccc(Br)o2)cc1C | inactive: -4.52% | –
61 | COc1cc2c(c(OC)c1OC)-c1ccc(NCCO)c(=O)cc1[C@@H](NC(C)=O)CC2 | – | inconclusive: 6.31 µM [inhibitor, full curve, poor fit]
62 | CCOc1ccc(-c2cc3c(=O)n(CCNC(=O)c4ccc(C#N)cc4)ccn3n2)cc1 | – | inconclusive: 79.4 µM [inhibitor, single point]
63 | CS(=O)(=O)Nc1ccccc1NS(C)(=O)=O | – | inconclusive: 15.8 µM [inhibitor, single point]
64 | O=C(c1ccccc1)c1ccc(O)cc1 | – | inconclusive: 0.355 µM [inhibitor, full curve]
65 | O=C(NC(=S)Nc1cc(Cl)ccc1Cl)c1ccco1 | inactive: 5.27% | –
66 | Cc1cccc(CN2CCN(C3CN(Cc4cn(Cc5cccc(C(F)(F)F)c5)nn4)S(=O)(=O)C3)CC2)c1 (stereo not drawn) | – | active: 12.6 µM
67 | CCC(CC)c1nnc(NC(=O)c2cc(C(=O)OC)cc([N+](=O)[O-])c2)s1 | inactive: -1.23% | –
68 | COc1cc(C2c3c(oc4ccccc4c3=O)C(=O)N2Cc2ccccc2Cl)ccc1O (stereo not drawn) | – | inconclusive: 112 µM [inhibitor, partial curve, poor fit]
